The results in this text go back to article PMC8534522.

Chains of the proteins cited; added tags and fusions are not shown.
UniProt O75475: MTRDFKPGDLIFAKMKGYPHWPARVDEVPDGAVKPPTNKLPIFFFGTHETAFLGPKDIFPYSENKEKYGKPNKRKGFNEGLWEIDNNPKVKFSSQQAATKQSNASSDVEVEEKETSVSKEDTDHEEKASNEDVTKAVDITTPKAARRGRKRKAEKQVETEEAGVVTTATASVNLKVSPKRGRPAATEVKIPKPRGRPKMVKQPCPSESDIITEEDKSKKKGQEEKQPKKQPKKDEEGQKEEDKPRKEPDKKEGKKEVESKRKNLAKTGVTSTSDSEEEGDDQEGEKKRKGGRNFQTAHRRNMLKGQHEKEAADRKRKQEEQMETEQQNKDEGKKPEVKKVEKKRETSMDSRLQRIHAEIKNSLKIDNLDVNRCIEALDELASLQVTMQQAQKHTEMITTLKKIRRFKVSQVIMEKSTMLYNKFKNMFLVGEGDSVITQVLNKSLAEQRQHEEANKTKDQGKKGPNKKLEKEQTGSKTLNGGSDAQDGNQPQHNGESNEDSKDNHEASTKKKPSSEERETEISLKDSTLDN
UniProt P11387: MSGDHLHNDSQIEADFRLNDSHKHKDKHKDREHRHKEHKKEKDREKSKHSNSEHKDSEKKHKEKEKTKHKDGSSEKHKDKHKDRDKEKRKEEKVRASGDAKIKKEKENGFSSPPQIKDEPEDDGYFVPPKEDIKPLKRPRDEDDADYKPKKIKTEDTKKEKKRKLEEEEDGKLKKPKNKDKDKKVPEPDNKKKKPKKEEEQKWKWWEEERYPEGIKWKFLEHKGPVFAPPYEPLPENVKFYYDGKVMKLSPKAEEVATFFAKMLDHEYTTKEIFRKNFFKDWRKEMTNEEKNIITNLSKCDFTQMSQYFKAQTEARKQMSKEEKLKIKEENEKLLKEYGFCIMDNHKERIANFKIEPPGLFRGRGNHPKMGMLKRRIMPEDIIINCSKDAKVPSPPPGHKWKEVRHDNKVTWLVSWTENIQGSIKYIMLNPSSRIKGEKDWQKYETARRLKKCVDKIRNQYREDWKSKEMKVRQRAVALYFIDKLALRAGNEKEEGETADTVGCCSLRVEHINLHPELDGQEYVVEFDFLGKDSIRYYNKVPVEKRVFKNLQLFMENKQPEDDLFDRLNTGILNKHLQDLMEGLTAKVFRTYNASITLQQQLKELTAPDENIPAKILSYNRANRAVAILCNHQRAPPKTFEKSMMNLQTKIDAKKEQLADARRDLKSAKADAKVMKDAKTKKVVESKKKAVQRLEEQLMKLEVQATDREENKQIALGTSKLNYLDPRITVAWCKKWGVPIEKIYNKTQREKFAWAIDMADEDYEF
UniProt Q7Z4V5: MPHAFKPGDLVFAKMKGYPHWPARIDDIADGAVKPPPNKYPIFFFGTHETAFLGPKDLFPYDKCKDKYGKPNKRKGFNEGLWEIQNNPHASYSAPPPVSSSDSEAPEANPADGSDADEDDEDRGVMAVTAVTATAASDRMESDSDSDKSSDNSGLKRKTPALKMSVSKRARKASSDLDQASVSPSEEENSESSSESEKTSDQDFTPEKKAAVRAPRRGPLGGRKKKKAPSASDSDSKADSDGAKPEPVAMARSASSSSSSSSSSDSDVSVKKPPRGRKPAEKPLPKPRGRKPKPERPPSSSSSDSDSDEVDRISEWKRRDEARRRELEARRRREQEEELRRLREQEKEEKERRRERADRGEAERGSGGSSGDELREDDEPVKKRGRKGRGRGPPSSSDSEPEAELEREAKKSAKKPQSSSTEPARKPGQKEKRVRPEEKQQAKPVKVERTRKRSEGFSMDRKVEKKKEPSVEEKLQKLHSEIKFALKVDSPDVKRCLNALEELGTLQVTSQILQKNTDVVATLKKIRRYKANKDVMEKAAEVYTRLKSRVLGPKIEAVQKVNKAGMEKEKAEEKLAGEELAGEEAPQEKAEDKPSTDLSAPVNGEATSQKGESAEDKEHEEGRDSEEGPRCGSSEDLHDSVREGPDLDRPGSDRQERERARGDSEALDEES
UniProt P01106: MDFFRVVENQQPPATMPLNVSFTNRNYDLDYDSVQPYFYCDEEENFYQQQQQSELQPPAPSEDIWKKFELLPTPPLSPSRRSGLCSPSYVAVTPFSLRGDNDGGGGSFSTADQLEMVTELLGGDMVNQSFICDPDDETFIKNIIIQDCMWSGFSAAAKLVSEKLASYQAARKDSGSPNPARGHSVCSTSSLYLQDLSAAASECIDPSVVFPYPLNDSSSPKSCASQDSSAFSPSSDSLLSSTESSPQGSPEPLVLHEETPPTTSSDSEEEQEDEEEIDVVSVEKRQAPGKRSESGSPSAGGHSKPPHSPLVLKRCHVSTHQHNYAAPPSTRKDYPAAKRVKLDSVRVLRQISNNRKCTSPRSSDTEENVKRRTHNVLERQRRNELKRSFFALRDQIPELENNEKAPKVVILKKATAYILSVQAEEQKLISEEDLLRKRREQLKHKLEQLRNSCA
UniProt Q03164: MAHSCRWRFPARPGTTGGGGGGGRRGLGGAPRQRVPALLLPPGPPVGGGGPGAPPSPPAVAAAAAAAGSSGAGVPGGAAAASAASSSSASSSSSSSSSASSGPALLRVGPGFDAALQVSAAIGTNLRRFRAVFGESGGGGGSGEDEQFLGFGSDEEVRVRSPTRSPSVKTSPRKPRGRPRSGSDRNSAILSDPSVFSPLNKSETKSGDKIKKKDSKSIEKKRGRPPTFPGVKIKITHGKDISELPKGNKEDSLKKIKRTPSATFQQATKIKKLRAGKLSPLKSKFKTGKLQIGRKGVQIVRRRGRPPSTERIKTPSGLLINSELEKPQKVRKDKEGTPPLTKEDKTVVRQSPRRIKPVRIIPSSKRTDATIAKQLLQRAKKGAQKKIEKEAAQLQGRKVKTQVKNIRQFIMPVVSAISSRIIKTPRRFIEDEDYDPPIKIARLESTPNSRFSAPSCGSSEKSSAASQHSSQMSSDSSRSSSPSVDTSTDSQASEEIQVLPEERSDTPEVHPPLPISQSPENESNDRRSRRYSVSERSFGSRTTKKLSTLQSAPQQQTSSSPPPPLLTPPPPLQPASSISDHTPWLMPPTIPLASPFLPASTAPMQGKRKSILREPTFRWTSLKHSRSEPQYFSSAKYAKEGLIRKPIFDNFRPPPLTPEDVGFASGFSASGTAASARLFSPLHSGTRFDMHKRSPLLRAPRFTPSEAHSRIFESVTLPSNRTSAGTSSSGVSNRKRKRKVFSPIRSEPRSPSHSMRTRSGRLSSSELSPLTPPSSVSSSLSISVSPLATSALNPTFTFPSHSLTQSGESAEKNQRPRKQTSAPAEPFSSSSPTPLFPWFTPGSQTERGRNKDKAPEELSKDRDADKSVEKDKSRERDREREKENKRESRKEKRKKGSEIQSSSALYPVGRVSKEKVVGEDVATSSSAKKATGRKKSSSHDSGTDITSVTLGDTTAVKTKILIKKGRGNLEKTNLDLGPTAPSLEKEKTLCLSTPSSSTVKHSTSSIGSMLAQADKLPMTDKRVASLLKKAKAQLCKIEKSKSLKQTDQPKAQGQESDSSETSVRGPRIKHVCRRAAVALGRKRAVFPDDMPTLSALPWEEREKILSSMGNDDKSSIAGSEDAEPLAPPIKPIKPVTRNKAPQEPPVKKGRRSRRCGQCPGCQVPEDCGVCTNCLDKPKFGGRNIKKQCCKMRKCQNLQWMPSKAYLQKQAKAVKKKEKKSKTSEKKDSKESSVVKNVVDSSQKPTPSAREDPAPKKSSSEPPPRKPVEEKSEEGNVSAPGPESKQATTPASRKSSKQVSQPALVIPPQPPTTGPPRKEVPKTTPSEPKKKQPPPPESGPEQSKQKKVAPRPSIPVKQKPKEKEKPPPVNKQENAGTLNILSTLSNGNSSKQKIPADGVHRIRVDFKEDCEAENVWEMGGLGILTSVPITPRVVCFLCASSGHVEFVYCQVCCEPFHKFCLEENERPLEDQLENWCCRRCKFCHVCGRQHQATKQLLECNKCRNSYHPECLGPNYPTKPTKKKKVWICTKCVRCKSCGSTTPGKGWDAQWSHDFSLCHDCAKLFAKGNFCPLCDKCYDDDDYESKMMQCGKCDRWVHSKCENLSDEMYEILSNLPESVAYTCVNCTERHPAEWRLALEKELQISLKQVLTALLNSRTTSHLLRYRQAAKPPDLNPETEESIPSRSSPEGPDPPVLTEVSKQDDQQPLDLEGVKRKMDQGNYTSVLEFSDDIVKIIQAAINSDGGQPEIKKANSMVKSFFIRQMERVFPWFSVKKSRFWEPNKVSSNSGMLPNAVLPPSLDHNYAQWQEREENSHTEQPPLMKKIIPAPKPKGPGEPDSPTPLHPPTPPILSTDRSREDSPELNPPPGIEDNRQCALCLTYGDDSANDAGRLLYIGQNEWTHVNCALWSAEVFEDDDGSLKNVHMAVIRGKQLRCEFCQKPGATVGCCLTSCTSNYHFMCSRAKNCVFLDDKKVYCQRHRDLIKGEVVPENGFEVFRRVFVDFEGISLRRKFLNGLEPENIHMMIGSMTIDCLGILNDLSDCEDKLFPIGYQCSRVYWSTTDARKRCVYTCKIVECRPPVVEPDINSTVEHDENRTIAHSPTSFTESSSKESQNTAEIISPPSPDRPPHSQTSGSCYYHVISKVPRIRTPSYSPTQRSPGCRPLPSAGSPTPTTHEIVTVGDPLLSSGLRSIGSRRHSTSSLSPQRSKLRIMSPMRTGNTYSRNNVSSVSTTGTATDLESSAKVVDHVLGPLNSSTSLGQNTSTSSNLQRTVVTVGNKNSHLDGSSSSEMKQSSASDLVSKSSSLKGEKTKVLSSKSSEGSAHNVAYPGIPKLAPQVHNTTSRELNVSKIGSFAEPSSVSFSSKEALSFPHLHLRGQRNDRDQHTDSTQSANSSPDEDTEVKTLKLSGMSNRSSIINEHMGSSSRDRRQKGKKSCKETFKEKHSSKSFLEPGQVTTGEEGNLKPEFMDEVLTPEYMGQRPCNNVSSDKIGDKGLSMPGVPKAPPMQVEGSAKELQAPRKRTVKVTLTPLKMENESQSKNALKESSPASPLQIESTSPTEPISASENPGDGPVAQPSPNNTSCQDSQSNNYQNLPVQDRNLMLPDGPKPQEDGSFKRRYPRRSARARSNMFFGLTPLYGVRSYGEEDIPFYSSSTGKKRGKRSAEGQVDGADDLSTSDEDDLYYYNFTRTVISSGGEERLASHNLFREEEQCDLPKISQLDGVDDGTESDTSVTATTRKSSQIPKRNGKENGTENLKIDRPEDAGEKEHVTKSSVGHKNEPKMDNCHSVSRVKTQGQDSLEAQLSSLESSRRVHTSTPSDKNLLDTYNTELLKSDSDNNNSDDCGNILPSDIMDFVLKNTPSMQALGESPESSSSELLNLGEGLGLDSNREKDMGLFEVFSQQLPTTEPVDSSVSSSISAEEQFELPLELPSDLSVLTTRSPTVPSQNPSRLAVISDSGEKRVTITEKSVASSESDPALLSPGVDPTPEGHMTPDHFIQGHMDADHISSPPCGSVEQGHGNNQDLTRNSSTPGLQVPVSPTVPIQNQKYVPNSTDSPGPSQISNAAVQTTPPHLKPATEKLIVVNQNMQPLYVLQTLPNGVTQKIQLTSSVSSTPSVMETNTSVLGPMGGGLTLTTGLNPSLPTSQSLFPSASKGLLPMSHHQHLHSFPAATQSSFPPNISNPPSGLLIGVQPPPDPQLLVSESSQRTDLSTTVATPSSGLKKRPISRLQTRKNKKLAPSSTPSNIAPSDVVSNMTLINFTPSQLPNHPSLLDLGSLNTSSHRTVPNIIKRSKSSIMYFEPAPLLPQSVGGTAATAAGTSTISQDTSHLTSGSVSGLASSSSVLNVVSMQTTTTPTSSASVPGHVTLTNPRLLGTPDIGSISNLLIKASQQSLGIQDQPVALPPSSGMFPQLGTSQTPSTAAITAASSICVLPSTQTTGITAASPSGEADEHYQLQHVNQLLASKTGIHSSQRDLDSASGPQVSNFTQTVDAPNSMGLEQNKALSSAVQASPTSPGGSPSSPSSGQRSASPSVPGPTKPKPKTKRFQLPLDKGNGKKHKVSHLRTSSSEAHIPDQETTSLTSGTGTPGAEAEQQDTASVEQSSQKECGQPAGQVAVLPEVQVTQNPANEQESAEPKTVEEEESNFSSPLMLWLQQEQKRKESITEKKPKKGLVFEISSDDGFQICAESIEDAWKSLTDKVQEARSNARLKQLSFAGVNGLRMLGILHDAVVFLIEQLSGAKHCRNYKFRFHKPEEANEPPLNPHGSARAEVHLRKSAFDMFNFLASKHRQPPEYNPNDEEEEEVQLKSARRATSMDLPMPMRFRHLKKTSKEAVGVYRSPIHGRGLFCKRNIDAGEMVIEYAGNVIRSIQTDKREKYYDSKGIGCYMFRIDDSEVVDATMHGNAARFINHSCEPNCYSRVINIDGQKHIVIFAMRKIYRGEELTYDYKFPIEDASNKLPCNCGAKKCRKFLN

The experiment addresses lens epithelium-derived growth factor p75 (LEDGF/p75) (human (endogenous in PC3-DR and DU145-DR)) (UniProt O75475). Kind of experiment: co-IP; endogenous proteins from whole cell lysates (500 ug, non-denaturing lysis buffer) of PC3-DR and DU145-DR cells; LEDGF/p75 precipitated with human anti-LEDGF/p75 (DFS) autoantibody sera (1:100) and Protein A/G Sepharose, 12 h at 4 °C; partners detected by immunoblot; normal human serum as negative control. In general terms: In western blotting, separated proteins are transferred to a membrane and probed.

No constants are given. Whether binding was seen depends on the method and setting. Binding seen in cells or lysates may run through a third protein. Some results given as binding are weak or reduced against the parent protein; the word gives no strength.

On to “DNA topoisomerase I (TOPO-1/Scl-70) (from UniProt P11387 1-765)”, for which the binding result is listed as “no binding”.
The result for HRP2 (from UniProt Q7Z4V5 1-671) reads “binds”; that for c-MYC (from UniProt P01106 1-454), “binds”.
The result for “mixed leukemia lineage histone lysine methyltransferase protein MLL (from UniProt Q03164 1-3969)” reads “binds”.
